These are yes or no findings as the source states them, for the method shown. Binding seen in cells or lysates may run through a third protein. Some binding calls cover weakened binding; strength is not graded here.
Biological target: Band 3 (human (endogenous in RBCs)) (UniProt P02730)
Assay: proximity ligation

Chains of the proteins cited; added tags and fusions are not shown.
UniProt P02730: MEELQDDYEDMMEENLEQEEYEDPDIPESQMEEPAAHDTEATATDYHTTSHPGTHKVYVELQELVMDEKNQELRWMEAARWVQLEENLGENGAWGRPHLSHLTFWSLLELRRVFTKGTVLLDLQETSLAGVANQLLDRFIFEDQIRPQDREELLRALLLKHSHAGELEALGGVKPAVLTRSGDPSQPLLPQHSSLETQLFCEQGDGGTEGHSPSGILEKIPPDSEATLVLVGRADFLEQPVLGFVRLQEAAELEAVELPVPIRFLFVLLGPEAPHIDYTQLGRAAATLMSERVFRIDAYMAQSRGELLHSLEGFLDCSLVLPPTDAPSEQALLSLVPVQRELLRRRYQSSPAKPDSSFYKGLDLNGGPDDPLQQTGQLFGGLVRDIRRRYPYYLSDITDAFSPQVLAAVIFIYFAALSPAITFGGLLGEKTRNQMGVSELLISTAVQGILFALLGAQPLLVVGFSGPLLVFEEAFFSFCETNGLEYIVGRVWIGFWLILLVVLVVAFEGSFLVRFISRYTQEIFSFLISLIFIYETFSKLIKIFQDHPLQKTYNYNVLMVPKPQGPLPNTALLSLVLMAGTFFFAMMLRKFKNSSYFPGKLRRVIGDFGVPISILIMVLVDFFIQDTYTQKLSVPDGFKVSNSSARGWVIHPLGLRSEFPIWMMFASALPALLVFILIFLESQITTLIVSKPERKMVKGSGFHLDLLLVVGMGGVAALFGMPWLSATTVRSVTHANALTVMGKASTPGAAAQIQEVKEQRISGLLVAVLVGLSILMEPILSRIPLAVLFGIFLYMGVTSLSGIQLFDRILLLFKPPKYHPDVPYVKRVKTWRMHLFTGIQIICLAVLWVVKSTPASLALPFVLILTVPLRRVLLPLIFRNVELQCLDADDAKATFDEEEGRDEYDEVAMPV

B1: Toll-like receptor 7 (TLR7) (receptor, UniProt Q9NYK1 27-1049)
chain: ARWFPKTLPCDVTLDVPKNHVIVDCTDKHLTEIPGGIPTNTTNLTLTINHIPDISPASFHRLDHLVEIDFRCNCVPIPLGSKNNMCIKRLQIKPRSFSGLTYLKSLYLDGNQLLEIPQGLPPSLQLLSLEANNIFSIRKENLTELANIEILYLGQNCYYRNPCYVSYSIEKDAFLNLTKLKVLSLKDNNVTAVPTVLPSTLTELYLYNNMIAKIQEDDFNNLNQLQILDLSGNCPRCYNAPFPCAPCKNNSPLQIPVNAFDALTELKVLRLHSNSLQHVPPRWFKNINKLQELDLSQNFLAKEIGDAKFLHFLPSLIQLDLSFNFELQVYRASMNLSQAFSSLKSLKILRIRGYVFKELKSFNLSPLHNLQNLEVLDLGTNFIKIANLSMFKQFKRLKVIDLSVNKISPSGDSSEVGFCSNARTSVESYEPQVLEQLHYFRYDKYARSCRFKNKEASFMSVNESCYKYGQTLDLSKNSIFFVKSSDFQHLSFLKCLNLSGNLISQTLNGSEFQPLAELRYLDFSNNRLDLLHSTAFEELHKLEVLDISSNSHYFQSEGITHMLNFTKNLKVLQKLMMNDNDISSSTSRTMESESLRTLEFRGNHLDVLWREGDNRYLQLFKNLLKLEELDISKNSLSFLPSGVFDGMPPNLKNLSLAKNGLKSFSWKKLQCLKNLETLDLSHNQLTTVPERLSNCSRSLKNLILKNNQIRSLTKYFLQDAFQLRYLDLSSNKIQMIQKTSFPENVLNNLKMLLLHHNRFLCTCDAVWFVWWVNHTEVTIPYLATDVTCVGPGAHKGQSVISLDLYTCELDLTNLILFSLSISVSLFLMVMMTASHLYFWDVWYIYHFCKAKIKGYQRLISPDCCYDAFIVYDTKDPAVTEWVLAELVAKLEDPREKHFNLCLEERDWLPGQPVLENLSQSIQLSKKTVFVMTDKYAKTENFKIAFYLSHQRLMDEKVDVIILIFLEKPFQKSKFLQLRKRLCGSSVLEWPTNPQAHPYFWQCLKNALATDNHVAYSQVFKETV
binding: binds

— publication PMC11233670
